Experimental findings from PMC3085091 are described below.

By UniProt entry, the sequences of proteins in these tests, tags left out.
UniProt P17302: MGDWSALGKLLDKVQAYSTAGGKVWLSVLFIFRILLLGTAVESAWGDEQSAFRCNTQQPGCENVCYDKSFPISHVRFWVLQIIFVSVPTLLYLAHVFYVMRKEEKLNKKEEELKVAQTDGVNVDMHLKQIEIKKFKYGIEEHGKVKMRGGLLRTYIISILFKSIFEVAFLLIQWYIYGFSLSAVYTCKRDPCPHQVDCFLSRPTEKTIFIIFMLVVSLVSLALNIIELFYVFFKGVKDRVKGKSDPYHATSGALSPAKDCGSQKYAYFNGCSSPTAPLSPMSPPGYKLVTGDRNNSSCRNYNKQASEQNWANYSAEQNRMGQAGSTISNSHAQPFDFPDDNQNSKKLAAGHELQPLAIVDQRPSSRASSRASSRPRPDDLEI

Results are given in words; binding and its absence hold for the method and conditions named. Binding seen in cells or lysates may run through a third protein. Some results given as binding are weak or reduced against the parent protein; the word gives no strength. Where a sequence is shown, tags or fusion partners need not be part of it.

Test [1] concerns the target T1, cytoplasmic region of desmocollin-2a wild-type, GST fusion protein, expressed in COS-1 cells (UniProt Q02487).
T1 sequence: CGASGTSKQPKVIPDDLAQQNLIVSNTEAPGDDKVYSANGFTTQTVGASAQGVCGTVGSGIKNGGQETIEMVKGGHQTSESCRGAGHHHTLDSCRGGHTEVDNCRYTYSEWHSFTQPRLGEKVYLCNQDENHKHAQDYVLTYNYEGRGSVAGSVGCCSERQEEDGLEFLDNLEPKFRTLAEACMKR
As to the kind of experiment: pull-down; GST pulldown from COS-1 cells coexpressing GST fusions of the DSC2 cytoplasmic region with Cx43-YFP.

Test [2] has as its target T2, cytoplasmic region of desmocollin-2a wild-type, GST fusion protein, bacterially expressed (UniProt Q02487).
T2 sequence: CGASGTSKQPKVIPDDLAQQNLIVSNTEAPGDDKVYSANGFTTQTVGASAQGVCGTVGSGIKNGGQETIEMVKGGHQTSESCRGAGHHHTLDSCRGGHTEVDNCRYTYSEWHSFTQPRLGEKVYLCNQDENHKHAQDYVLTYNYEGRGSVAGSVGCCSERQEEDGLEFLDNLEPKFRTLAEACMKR
As to the kind of experiment: pull-down; GST pulldown: bacterially expressed GST fusions of the DSC2 cytoplasmic region as bait, rat heart lysate; PG and PKP2 detected by blot; only the target purified.

On to “connexin43 yellow fluorescent protein (YFP) fusion protein (from UniProt P17302 1-382)”, for which the binding result in test [1] is “binds”.

B1: plakophilin-2 from rat heart lysate (protein, UniProt F1M7L9 1-814)
chain: MAIPGSLGECGYIRTVLGQQILGHLDSSSLALPSEARLRLAGSSGRGDPVARSQRIQEQVQQTLARRGRSSVVGGNLHRTSSVPEYVYKLHLVENDFVGRQSPAARDYDMLKVGLSGWRDGSTLKVPCTSIKPHREKKTWIEALREGLEHTTDHTDCPAHYVYSHYYFNSKKSNILVFQHIKDKSLQRNAIILLSPEHCTCQHVRLIPSSVLPSLFNQLQLSPELYFSNMGTLYMTSIKGTLCIQLLKGKLPAKHQANFVTMAERRVYTLLLSSTTSSETSFRRTGDTLPSVTSGQSRVHGLHFHHVICDCLSRNADLEMTLERAVNMLDADHVPLSKISAAATFIQHESFQKSEARKRVNQLQGIPKLLQLLKVQNEDVQRAVCGALRNLVFEDNDNKVTVVLGKVNITKREGGGQAAGYMKETWKLANKNPVFLGLLWNLSSSDKLKHLMITEALLTLTESVIIPFSGWPEGDYPKANGLLDFDIFYNVTGCLRNMSSAGPDGRKVMRRCDGLIDSLVHYVRGTIADYQPDDKATENCVCILHNLSYQLEAELPEKYSQSIYMQNRNIQTNSNKSIGCFGSRSRKVKEQYQDTPMPEERSSPRGIEWLWHSIVIRMYLSLIAKSSRNYTQEASLGALQNLTAGSGPIPTSVARMVVQKENGLQHTRKMLHVGDPSVKKTAVSLLRNLSRNLSLQNEIAKETLPDLVSIIPDTVPSTDLLIETTASACYTLNNLMQNSYQNARDLLNTGGLQKIMTISIGEGYAPNKASKAASVLLYSLWAHTELHNAYKKAQFKKTDFVNSRTAKASHSLKD
B1: the binding entry in test [2] is “binds”.

B2: plakoglobin from rat heart lysate (protein, UniProt Q6P0K8 1-745)
chain: MEVMNLIEQPIKVTEWQQTYTYDSGIHSGVNTCVPSVSSKGLLDEDDTCGRQYTLKKTTTYTQGVPQSQGDLEYQMSTTARAKRVREAMCPGVSGEDSSLLLATQVEGQTTNLQRLAEPSQLLKSAIVHLINYQDDAELATRALPELTKLLNDEDPVVVTKAAMIVNQLSKKEASRRALMGSPQLVAAVVRTMQNTSDLDTARCTTSILHNLSHHREGLLAIFKSGGIPALVRMLSSPVESVLFYAITTLHNLLLYQEGAKMAVRLADGLQKMVPLLNKNNPKFLAITTDCLQLLAYGNQESKLIILANGGPQGLVQIMRNYSYEKLLWTTSRVLKVLSVCPSNKPAIVEAGGMQALGKHLTSNSPRLVQNCLWTLRNLSDVATKQEGLENVLKILVNQLSVDDVNVLTCATGTLSNLTCNNSKNKTLVTQNSGVEALIHAILRAGDKDDITEPAVCALRHLTSRHPEAEMAQNSVRLNYGIPAIVKLLNQPNQWPLVKATIGLIRNLALCPANHAPLQEAAVIPRLVQLLVKAHQDAQRHVAAGTQQPYTDGVRMEEIVEGCTGALHILARDPMNRMEIFRLNTIPLFVQLLYSSVENIQRVAAGVLCELAQDKEAADAIDAEGASAPLMELLHSRNEGTATYAAAVLFRISEDKNPDYRKRVSVELTNSLFKHDPAAWEAAQSMIPINEPYADDMDATYRPMYSSDVPLDPLDMHMDMDGDYPMDTYSDGLRPPYPAADHMLA
For B2, the binding result in test [2] is given as “binds”.
